Results reported in patent US20240294634A1.
Numbering of substitutions follows the chain as printed. These are yes or no findings as the source states them, for the method shown. Some results given as binding are weak or reduced against the parent protein; the word gives no strength.

Sequences of proteins named here, by UniProt entry; tags and fusion partners are left off. Residues count along the entry.
UniProt Q8NHL6, residues 24-458: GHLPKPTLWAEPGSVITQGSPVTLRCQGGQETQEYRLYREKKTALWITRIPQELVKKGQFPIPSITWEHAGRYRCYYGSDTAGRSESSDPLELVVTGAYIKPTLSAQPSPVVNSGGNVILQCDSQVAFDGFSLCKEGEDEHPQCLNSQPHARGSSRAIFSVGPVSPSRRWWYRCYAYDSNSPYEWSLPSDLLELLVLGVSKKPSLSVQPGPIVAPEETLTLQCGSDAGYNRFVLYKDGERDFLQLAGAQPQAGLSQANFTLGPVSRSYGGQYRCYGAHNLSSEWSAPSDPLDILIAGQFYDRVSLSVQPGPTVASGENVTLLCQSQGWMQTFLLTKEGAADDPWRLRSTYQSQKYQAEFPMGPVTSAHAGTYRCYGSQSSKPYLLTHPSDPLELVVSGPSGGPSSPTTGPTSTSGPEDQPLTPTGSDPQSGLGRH

Experiments:
[1] = target: Human ILT-2 (complete form) expressed at the cell surface (human) (UniProt Q8NHL6); experiment: flow cytometry titration on cells transfected with wild-type ILT2 (WT)
[2] = target: BirA-tagged ILT2 protein, biotinylated, tetramerised on APC-conjugated streptavidin (UniProt Q8NHL6); experiment: flow cytometry blocking assay: antibody pre-incubated with ILT2-streptavidin tetramers, then added to HLA-G or HLA-A2 expressing cells; blocked ligands HLA-G and HLA-A2; antibody concentration not given
[3] = target: Human ILT-2 (complete form) expressed at the cell surface (human) (UniProt Q8NHL6); experiment: flow cytometry, ILT2 point mutation study
[4] = target: ILT2 D4 domain protein at the cell surface (human) (UniProt Q8NHL6); experiment: flow cytometry, CHO cells with anchored ILT2 fragment
[5] = target: ILT2 D3-D4 domain protein at the cell surface (human) (UniProt Q8NHL6); experiment: as above
[6] = target: ILT2 D2-D3-D4 domain protein at the cell surface (human) (UniProt Q8NHL6); experiment: as above
[7] = target: ILT2 D4 domain protein at the cell surface (human) (UniProt Q8NHL6); experiment: flow cytometry on CHO cells expressing the ILT2 D4 domain protein

Measured: binding

B1: 12D12 (antibody, human IgG1, V domains shown)
VH: QVQLQQPGAELVKPGASVRMSCKASGYTFTSYWVHWVKQRPGQGLEWIGVIDPSDSYTSYNQNFKGKATLTVDTSSKTAYIHLSSLTSEDSAVYFCARGERYDGDYFAMDYWGQGTSVTVSS
VL: DIVMTQSPASLSVSVGETVTITCRASENIYSNLAWYQQKQGKSPQLLVYAATNLADGVPSRFSGSRSGTQYSLKINSLQSEDFGTYYCQHFWNTPRTFGGGTKLEIK
binds: [1] | [2] | [3]

B2: 2H2A (antibody, V domains shown)
VH: EVKLEESGPELVKPGASVKLSCKASGYTFTNYYMQWVKQRPGQGLEWIGWIFPGSGESSYNEKFKGKATLSADTSSTTAYMQLSSLTSEDSAVYFCARTWNYDARWGYWGQGTTLTVSS
VL: DILMTQSPASLAVSLGQRATISCIPSESIDSYGISFMHWYQQKPGQPPKLLIYRASNLESGIPARFSGSGSRTDFTLTINPVEADDVATYYCQQSNEDPFTFGSGTKLELK
binds: [3]

B3: 27C10 (antibody, human IgG1, V domains shown)
VH: EVQLQESGPGLVKPSQSLSLTCSVTGYSITSGYYWNWIRQFPENKLEWMGYIRYDGSNNYNPSLNNRISITRDASKNQFFLKLNSVTTEDTATYYCARGWLLWFYAVDYWGQGTSVTVSS
VL: DVVMTQTPLSLPVSLGDQASISCRSSQSIVHTNGNTYLEWYLQKSGQSPKLLIYKVSNRLSGVPDRFSGSGSGTDFTLKISRVEAEDLGIYYCFQGSHVPWTFGGGTKLEIK
not listed: [2]
binds: all other assays above

B4: 3H5 (antibody, human IgG1, V domains shown)
VH: QVQLKESGPGLVAPSQSLSITCTVSGFSLTSYGVSWVRQPPGKGLEWLGVIWGDGSTNYHSALISRLSISKDNSKSQVFLKLNSLQTDDTATYYCAKPRWDDYAMDYWGQGTSVTVSS
VL: DIQMTQTTSSLSASLGDRVTISCRASQDISNYLNWYQQKPDGTVKLLIYYTSRLHSGVPSRFSGSGSGTDYSLTISNLEQEDIATYFCQQGNTLWTFGGGTKLEIK
binds: [1] | [3]

B5: 27H5 (antibody, human IgG1, V domains shown)
VH: QVQLKESGPGLVAPSQSLSITCTVSGFSLTSYGVSWVRQPPGKGLEWLGVIWGDGNTNYHSALISRLSISKDNSKSQVFLKLNSLQTDDTATYYCARTNWDGWFAYWGQGTLVTVSA
VL: DIVMTQSHKFMSTSVGDRVSITCKASQDVGTAVAWYQQKPGQSPKLLIYWASTRHTGVPDRFTGSGSGTDFTLTISNVQSEDLADYFCQQYRSYPLGTFGGGTKLEIK
binds: [1] | [3]

B6: 18E1 (antibody, human IgG1, V domains shown)
VH: QVQLQQSGAELVKPGASVRLSCKASGYTFTAHTIHWVKQRSGQGLEWIGWLYPGSGSIKYNEKFKDKATLTADKSSSTVYMELSRLTSEDSAVYFCARHTNWDFDYWGQGTTLTVSS
VL: NIVLTQSPASLAVSLGQRATISCKASQSVDYGGASYMNWYQQKPGQPPKLLIYAASNLESGIPARFSGSGSGTDLTLNIHPVEEEDAAMYYCQQSNEEPWTFGGGTKLEIK
binds: all assays above

B7: 26D8 (antibody, human IgG1, V domains shown)
VH: B6 VH with R19K, A31E, V37I, L51F, I58M, S84T
VL: B6 VL with N1D, A34D, E85D
binds: all assays above
